This note sets out measurements from paper PMC7819943, “Rice protein-binding microarrays: a tool to detect cis-acting elements near promoter regions in rice”.

This is one part of the list.

The target in the test is T1, OsSMF1 (Oryza sativa, UniProt Q6ZLB0 1-436).
T1 sequence: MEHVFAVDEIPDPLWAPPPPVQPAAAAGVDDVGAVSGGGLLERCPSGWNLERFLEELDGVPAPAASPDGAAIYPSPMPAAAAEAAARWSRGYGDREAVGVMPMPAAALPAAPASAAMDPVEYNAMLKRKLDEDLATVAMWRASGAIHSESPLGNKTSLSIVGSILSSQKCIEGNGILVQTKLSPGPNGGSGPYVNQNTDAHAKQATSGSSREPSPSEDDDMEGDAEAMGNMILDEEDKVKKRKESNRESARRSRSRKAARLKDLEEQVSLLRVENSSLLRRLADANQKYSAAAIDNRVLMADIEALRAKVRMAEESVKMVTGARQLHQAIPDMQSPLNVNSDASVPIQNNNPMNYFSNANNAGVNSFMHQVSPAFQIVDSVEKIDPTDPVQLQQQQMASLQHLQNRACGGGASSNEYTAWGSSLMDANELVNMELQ
Put plainly: protein-binding microarray (RPBM); PBS, 2% BSA, 51.3 ng/ul salmon testes DNA, 50 uM zinc acetate, 200 nM TF, 25 C, 1 h; high values mean tight binding. The note with it: protein: recombinant; tags: N-terminal polyhistidine and DsRed monomer fusion (pET32a); chain copies: 2; label: CyDye5-dUTP incorporated in the synthesized complementary strand; 3' TTTTT single-stranded linker to array surface; dsDNA, one strand shown. The method in brief:
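Transcription factors, each fused N-terminally to a polyhistidine tag and DsRed, were expressed in E. coli BL21-CodonPlus and purified on Ni–NTA. A custom Agilent array was made double-stranded by primer extension with Cy5-dUTP and blocked with 2% BSA. It was incubated with 200 nM protein in PBS, 2% BSA, salmon testes DNA and 50 µM zinc acetate at 25 °C for 1 h, then washed. The binding signal is per-feature fluorescence intensity (arbitrary units) read on an Axon 4000B scanner.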
“AGGGCACATTATGAAATTACACCCCTACCTTTCAGCAAAACGGAGTCACCTAGTGCAG”: the binding signal is 3300 fluorescence intensity (a.u.). Then “ATGCACACACATACAACGAAAACCAGAGATCAACAGGTGCCGGAGTCACCTAGTGCAG”, with 45100 fluorescence intensity (a.u.); and “TAGCTTGTATGTGTCAGTTGGCACGTGGTTTTAAGGTGGGCGGAGTCACCTAGTGCAG”, with 4530 fluorescence intensity (a.u.); and “CTCCAGTCAAAGCAAGTGAAGATGTGTCAGTACTCAGTCACGGAGTCACCTAGTGCAG”, with 3740 fluorescence intensity (a.u.). On to “GTGCGTGCATGTGCTGCGTCTGGTGTGACGGTGAGAGAGACGGAGTCACCTAGTGCAG”, for which the binding signal was 3750 fluorescence intensity (a.u.). “AACCACGTATGCGCCACGTCATCCAAAACCGCCTTCAAAACGGAGTCACCTAGTGCAG”: the binding signal is 14400 fluorescence intensity (a.u.).

On to “AAATTTAAGAGTTTGAGCCATACGAAACGGCCCTGAAGAACGGAGTCACCTAGTGCAG”, for which the binding signal was 24700 fluorescence intensity (a.u.).

On to “ATATAAAATGACGTCAAATATATTCCCTTACTAGATCTTCCGGAGTCACCTAGTGCAG”, for which the binding signal is 10900 fluorescence intensity (a.u.).

As for “TGTGTGTGTGGGATGCAGGAACAGGTCGTATCTGATGAACCGGAGTCACCTAGTGCAG”, the binding signal was 3260 fluorescence intensity (a.u.). As for “AGGACGAATGATCAAACGTGTGCCCAGCGGTCAATGACGTCGGAGTCACCTAGTGCAG”, the binding signal is 3760 fluorescence intensity (a.u.). Then “GGCAGCACCGCAGCAGCCGCCACCCGTGCATCCCTACCCGCGGAGTCACCTAGTGCAG”, with 3530 fluorescence intensity (a.u.); and “GGCCGCCTGCAAATTTCGTTCCGTCTGCCACGTCACTTTCCGGAGTCACCTAGTGCAG”, with 36800 fluorescence intensity (a.u.). Then “AATGCTGTTCGAGCTTGAGCTGGAGCAGTAATAGAGCACCCGGAGTCACCTAGTGCAG”, with 3250 fluorescence intensity (a.u.). Then “TCCCTCGAGAGGATGTCCTCTCATTGTTTGCATGTCATTTCGGAGTCACCTAGTGCAG”, with 3220 fluorescence intensity (a.u.); and “TCACATGCATGAGCACATGACGTGTGGTGTCACAGAATCTCGGAGTCACCTAGTGCAG”, with 10700 fluorescence intensity (a.u.); and “GCCACCACATTTAGCGCCCGCCGCCACCGCTGCCGCCGCCCGGAGTCACCTAGTGCAG”, with 3220 fluorescence intensity (a.u.). Consider “CGCGGCGCGCCGGGTCGTTCGTTCGTACAGCACGTACTACCGGAGTCACCTAGTGCAG”, for which the binding signal was 3460 fluorescence intensity (a.u.). Then “CTCCTCGTCTCCGCTCCTCTCTCCACGTGTTGACCAGGCCCGGAGTCACCTAGTGCAG”, with 6420 fluorescence intensity (a.u.); and “ACGTCTTTAGTCATGTAGCTACCTATATGCAGCCCCTTCGCGGAGTCACCTAGTGCAG”, with 3390 fluorescence intensity (a.u.). The value for “AGCGCCGAAGTGGTTGGTGCTGAGGTAGCTACCACGTTAGCGGAGTCACCTAGTGCAG” was 6040 fluorescence intensity (a.u.); that for “AGTTGTATCACTGATATATGGATCTTAGATGGGGCCTACACGGAGTCACCTAGTGCAG” was 5530 fluorescence intensity (a.u.); that for “GCCACCGCCAGTCGCCGCGCGCCTTCGGTTCTCCCCATCGCGGAGTCACCTAGTGCAG” was 3430 fluorescence intensity (a.u.). Then “AACCCTAAGACTAGAGGCGGGCTGGAGCGTGGAGGCGGGACGGAGTCACCTAGTGCAG”, with 3240 fluorescence intensity (a.u.). For the sequence “AGTGAGCTATCTGAATTCTGGATAGGGTTACACAGGCTACCGGAGTCACCTAGTGCAG”, the binding signal was 28500 fluorescence intensity (a.u.).

Regarding “TGTGTTCTGCAATGCATAATTGCACCAGTTCTAGTACCTGCGGAGTCACCTAGTGCAG”, the binding signal is 45300 fluorescence intensity (a.u.). Then “GCCGAGAGGGCAAAGACCTCCTCGGCCGCACCACCCACAACGGAGTCACCTAGTGCAG”, with 32000 fluorescence intensity (a.u.); and “CGCTGGTGAAGTGGTGATGCGCCTAATCGTTTTCTTCGCGCGGAGTCACCTAGTGCAG”, with 3260 fluorescence intensity (a.u.). Then “GGCTCCGTCTTATCCTAACAACGCCAAGGGGCCACGTATGCGGAGTCACCTAGTGCAG”, with 7210 fluorescence intensity (a.u.); and “TTGGCAAAGAGGGACTGACGAGAGAGTAGCAATGAGAAGGCGGAGTCACCTAGTGCAG”, with 25500 fluorescence intensity (a.u.); and “AATGTTTCAACTAATTTCAAGCAACTATGACTGTGTTTAGCGGAGTCACCTAGTGCAG”, with 4410 fluorescence intensity (a.u.). The value for “CTTGTGATTTGTTCATGACACAACTTGACACGGTTTGGGTCGGAGTCACCTAGTGCAG” was 3740 fluorescence intensity (a.u.). With “CTATAATAATTTATGATGCCCACGTATATAGTGTATTTGGCGGAGTCACCTAGTGCAG”, the binding signal is 5690 fluorescence intensity (a.u.). Then “CAATCCGTTGATCGGGGTCGTAGTCCATCGACAGAAATTACGGAGTCACCTAGTGCAG”, with 41800 fluorescence intensity (a.u.); and “ATGTGGAGAGGGGAGGGGAATAAGAGGCTGACGTGTGGGCCGGAGTCACCTAGTGCAG”, with 19200 fluorescence intensity (a.u.). Then “CACAGGTTTTGACCTGTTCCAGTGTCACTGACTTGTGGGCCGGAGTCACCTAGTGCAG”, with 3690 fluorescence intensity (a.u.); and “CGGGATCGGCCTCCGAGGGCTCCGACGCGTCGGTAGCGGCCGGAGTCACCTAGTGCAG”, with 3540 fluorescence intensity (a.u.). The value for “ATCAACGGGACAGTGATCCACGTACGGGAAAACCACCCATCGGAGTCACCTAGTGCAG” was 3630 fluorescence intensity (a.u.); that for “CTTGGCTGAGTAGAAAAGCAGAACATCTTCTTGTTCCGTGCGGAGTCACCTAGTGCAG” was 3170 fluorescence intensity (a.u.); that for “CCCACGTGGGTCCCACGCTGACTCAGCCGCCACGTAGATCCGGAGTCACCTAGTGCAG” was 25400 fluorescence intensity (a.u.). “CGGTTTTAGCTGACGTGGCGCCTACGTGGCAAAGTTGACCCGGAGTCACCTAGTGCAG”: the binding signal was 44700 fluorescence intensity (a.u.).

Regarding “ACAGGCGATATGTCACCCTATTTCTGTTGCTGTTCAACGACGGAGTCACCTAGTGCAG”, the binding signal is 3530 fluorescence intensity (a.u.). In the case of “GCAGTGGTCGTGGGCTCGTGGCTGGAAAGTGGAGGAAACCCGGAGTCACCTAGTGCAG”, the binding signal was 6130 fluorescence intensity (a.u.). The value for “TGTAGAGGAGAAGGGCTGTGATGGTGTGGCGGCGGCGGCGCGGAGTCACCTAGTGCAG” was 3200 fluorescence intensity (a.u.). The value for “ATGGAGGCGGCGGTGGCGGTGGAGGTGGAGAGGTGAGGAGCGGAGTCACCTAGTGCAG” was 3500 fluorescence intensity (a.u.). On to “CCCTTTCTCAGTCCACCCCATGTGTGGTATTTCCCTGTCTCGGAGTCACCTAGTGCAG”, for which the binding signal is 34100 fluorescence intensity (a.u.). The value for “CTTTTCGTTTAATTAACGTGGCAAGGAGTGATATATACGACGGAGTCACCTAGTGCAG” was 3870 fluorescence intensity (a.u.). As to “ATCGAGCGCGCTGAGACGGTCCAACCTCCTCGGAGGCGTCCGGAGTCACCTAGTGCAG”, the binding signal was 11500 fluorescence intensity (a.u.).

Consider “AGCCCAAGTCTTACCCACCACAAGCCCAACACACCACACTCGGAGTCACCTAGTGCAG”, for which the binding signal is 3800 fluorescence intensity (a.u.). Turning to “ACGCCCTTGTACACCCTGCCGAATCCGCCGGTGCCGAGCACGGAGTCACCTAGTGCAG”, the binding signal was 3190 fluorescence intensity (a.u.).

Take “TGGGCTCCGGCGGAGGGTGGTGCGGTGGCGACTGGCGCGGCGGAGTCACCTAGTGCAG”: the binding signal was 3510 fluorescence intensity (a.u.).

As to “TGATTCGCATTGCATCCATCATTTTAGGATGTTCTACTAGCGGAGTCACCTAGTGCAG”, the binding signal is 3310 fluorescence intensity (a.u.). Then “GATGCACCACTGCTGCGTCGCACGTTCCACCCCATTCCACCGGAGTCACCTAGTGCAG”, with 3520 fluorescence intensity (a.u.); and “ATATATATATATATATATATATATATATATATGAGCGGGACGGAGTCACCTAGTGCAG”, with 3970 fluorescence intensity (a.u.). Then “GATTTTCTCTATTTTATTAGAGCACCACGTGGCAGCTTGGCGGAGTCACCTAGTGCAG”, with 25800 fluorescence intensity (a.u.).
